Library screen at single concentrations

Mtb cholesterol medium: 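Phenotypic screen: M. tuberculosis growth, cholesterol and DPPC medium, 4 days; the read-out is not stated. Tested at 50 µM. The record gives no direction; compounds that gave an IC50 in retests scored well above the rest, so higher reads as more growth inhibition. About 69,000 compounds were tested under these conditions; 0.54% (about 370) showed 50% or more at least once.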
Mtb glucose medium: 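Whole-cell growth test on Mycobacterium tuberculosis, read after 3 days in glucose-containing 7H9 medium; the read-out is not stated. Compounds at 50 µM. The record gives no direction; compounds that gave an IC50 in retests scored well above the rest, so higher reads as more growth inhibition. Of about 69,000 compounds tested this way, about 760 (1.1%) reached 50% or more in at least one test.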

The filed quantity is “Percent Effect” (%). The controls that fix the scale are not given in the record; negative values are as filed. Compounds were drawn at random from those tested, without regard to their results. Two or more numbers in one place are separate tests of the same structure; such repeats can differ widely.

COC(=O)CC(NC(=O)CCn1cccn1)c1ccc(C)cc1 (centres unmarked) gave Mtb cholesterol medium: -3.551%; Mtb glucose medium: 3.593% & -9.479%. With CCS(=O)(=O)N1Cc2ncn(CC3CC3)c2C(COCC2CC2)C1.O=C(O)C(F)(F)F (centres unmarked) the screen gave Mtb cholesterol medium: 9.261%; Mtb glucose medium: 19.99%. Result for CCc1ncc(C(=O)NCCn2c(C)cc(C)nc2=O)cn1 was Mtb cholesterol medium: 3.724%; Mtb glucose medium: 1.379%. Result for Cc1ccc(F)c(S(=O)(=O)Nc2cn(C)cc(Br)c2=O)c1 was Mtb cholesterol medium: 8.746%; Mtb glucose medium: 4.731% & 1.948%. With CSCCCN1CC[C@@H](NC(=O)c2cnccn2)[C@H](O)C1 the screen gave Mtb cholesterol medium: 23.22%; Mtb glucose medium: -20.01%. CNC(=O)C1(c2cnccn2)CCCN1C(=O)c1ccc(F)cc1 (centres unmarked) gave Mtb cholesterol medium: -38.01%; Mtb glucose medium: -6.006%.

CCSCc1cccc(NC(=O)N(C)Cc2ncnn2C)c1 read Mtb cholesterol medium: 17.46%; Mtb glucose medium: -8.694%. For Cc1noc(C)c1C(=O)N1CCCC1c1c(C)nn(C)c1Cl (centres unmarked) the result was Mtb cholesterol medium: 9.565%; Mtb glucose medium: -1.328%. With COC(=O)CNC(=O)C1(N(C)Cc2ccccc2)Cc2ccccc2C1 the screen gave Mtb cholesterol medium: -1.898%; Mtb glucose medium: 3.308% & 30.02%. With CCc1nc(CN2CCCC2c2c(C)nn(C)c2OC)no1 (centres unmarked) the screen gave Mtb cholesterol medium: -8.574%; Mtb glucose medium: -7.016%. Cc1ccc(CNC(=O)c2cc(C)n(C)n2)o1 gave Mtb cholesterol medium: -4.57%; Mtb glucose medium: 24.92%. With CCN(CCn1cccn1)Cc1nc(-c2cccs2)oc1C the screen gave Mtb cholesterol medium: 1.342%; Mtb glucose medium: 12.02% & -4.039%.

Result for Cc1cc(C)n(CC(=O)N2CCCCC2CCN(C)C)c(=O)n1 (centres unmarked) was Mtb cholesterol medium: -4.723% & -13.45%; Mtb glucose medium: -7.804%. CSc1ccc(C(=O)C2CCCN(C(=O)Cn3cnnn3)C2)cc1 (centres unmarked) read Mtb cholesterol medium: -6.196%; Mtb glucose medium: -22.42%. With N#Cc1nccnc1NC1CCN(c2c(F)cccc2F)C1 (centres unmarked) the screen gave Mtb cholesterol medium: 4.463%; Mtb glucose medium: 20.87% & 12.68%. CC(C)c1noc(C2CCN(S(=O)(=O)c3cccs3)CC2)n1 read Mtb cholesterol medium: 13.03%; Mtb glucose medium: 11.82%. O=C(O)C(F)(F)F.[H][C@]12CCN(S(=O)(=O)c3ccccc3)CC[C@@]1([H])S(=O)(=O)CCN2CC(C)C gave Mtb cholesterol medium: -1.853%; Mtb glucose medium: -29.96% & -4.858%. Result for COC[C@@H]1CCC[C@]12CN(S(=O)(=O)c1cccs1)CCO2 was Mtb cholesterol medium: -8.597%; Mtb glucose medium: -14.97% & 2.114%.

With CC(C)NC(=O)C(NC(=O)N1CCN(c2ccc(Cl)cc2)CC1)C(C)C (centres unmarked) the screen gave Mtb cholesterol medium: -7.352%; Mtb glucose medium: -7.386%. For Cc1ncc2c(n1)CN(CC(=O)Nc1nccs1)CC2 the result was Mtb cholesterol medium: -2.666%; Mtb glucose medium: 8.723%. O=C(c1cnc(-c2ccccc2)s1)N1CCOC2(CCCC2)C1 gave Mtb cholesterol medium: 11.34%; Mtb glucose medium: 11.56%. O=C(CCc1cccnc1)N(Cc1ccsc1)CC1CCCO1 (centres unmarked) read Mtb cholesterol medium: 15.38%; Mtb glucose medium: 18.62%. Result for Cc1ccc(C(=O)NCCS(C)(=O)=O)c(=O)[nH]1 was Mtb cholesterol medium: 1.575% & -2.969%; Mtb glucose medium: 13.97%. Result for Cc1ccc(CN(C)C(=O)CN2CCCCC2Cn2cncn2)cc1 (centres unmarked) was Mtb cholesterol medium: 1.718%; Mtb glucose medium: 10.83% & -5.647%.

With CCOc1ccc(NC(=O)NCCCN(C)S(C)(=O)=O)cc1C the screen gave Mtb cholesterol medium: 13.61%; Mtb glucose medium: 27.77%. Result for Cc1nc2cc(CNC(=O)C3CC(=O)N(CCN(C)C)C3)ccc2n1C (centres unmarked) was Mtb cholesterol medium: 3.93%; Mtb glucose medium: 20.84%. For CC(C)S(=O)(=O)N1CCCC(c2nnc(Cn3ccnc3)n2C)C1 (centres unmarked) the result was Mtb cholesterol medium: -0.3048%; Mtb glucose medium: -7.261% & 8.486%. For O=C(c1nn(-c2ccccc2F)cc1O)N1CCCCC1 the result was Mtb cholesterol medium: 2.782%; Mtb glucose medium: 6.015% & -23.46%.

Once more, the final 3:

{"structure": "Cc1nc2cc(CNC(=O)C3CC(=O)N(CCN(C)C)C3)ccc2n1C", "stereo": "centres unmarked", "Mtb cholesterol medium": 3.93, "Mtb glucose medium": 20.84}
{"structure": "CC(C)S(=O)(=O)N1CCCC(c2nnc(Cn3ccnc3)n2C)C1", "stereo": "centres unmarked", "Mtb cholesterol medium": -0.3048, "Mtb glucose medium": "-7.261 & 8.486"}
{"structure": "O=C(c1nn(-c2ccccc2F)cc1O)N1CCCCC1", "Mtb cholesterol medium": 2.782, "Mtb glucose medium": "6.015 & -23.46"}

Source: ChEMBL document CHEMBL3988442, “University of Dundee, Small-Polar-MMV Screening Library” (2021).